26 compounds from the supplement of paper PMC10735217 can be followed below.

The test system of this test is HEK293A TEAD-LUC reporter. The experiment in a line: TEAD-luciferase reporter activity (YAP activation), robust Z score vs plate; higher = stronger YAP/TEAD activation. The conditions noted are these: 24 h. A general note: A reporter such as luciferase makes a cellular process visible.

Where a name gives a salt, the structure may show the parent alone. Some of the results follow. This data set is noisy: repeats of one test often differ as much as different tests do.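 In a drug-repurposing library screen, luminescence reads luciferase driven by eight TEAD-binding elements, stably integrated into human kidney-derived cells. Compounds scoring over five robust Z scores above the plate mean are called hits.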

On to `C[C@H](CCC(=O)NCCS(=O)(=O)O)[C@H]1CC[C@H]2[C@@H]3[C@H](O)C[C@@H]4C[C@H](O)CC[C@]4(C)[C@H]3C[C@H](O)[C@]12C`, for which the TEAD-luciferase reporter activity runs as follows: (compound concentration: 200 nM) inactive: -0.687; (compound concentration: 10 uM) inactive: -1.54.

As for `C[C@H](CCC(=O)NCCS(=O)(=O)O)[C@H]1CC[C@H]2[C@@H]3[C@H](O)C[C@@H]4C[C@H](O)CC[C@]4(C)[C@H]3C[C@H](O)[C@]12C` [Taurocholic acid], the TEAD-luciferase reporter activity (compound concentration: 2 uM) is inactive: -1.92.

On to `CC[C@H](C)[C@H](NC(=O)[C@H](CCC(N)=O)NC(=O)[C@@H]1CCCN1C(=O)[C@H](CCCNC(=N)N)NC(=O)[C@@H]1CCCN1C(=O)[C@H](Cc1c[nH]c2ccccc12)NC(=O)[C@@H]1CCC(=O)N1)C(=O)N1CCC[C@H]1C(=O)N1CCC[C@H]1C(=O)O`, for which the TEAD-luciferase reporter activity is, setting by setting: (compound concentration: 200 nM) inactive: -1.49; (compound concentration: 2 uM) inactive: -1.2; (compound concentration: 10 uM) inactive: -1.9.

Take `CC(C)NC(=O)NC1CC2(CCN(Cc3ccc(O)cc3)CC2)Oc2ccccc21` (centres undefined): the TEAD-luciferase reporter activity (compound concentration: 200 nM) is inactive: 2.76 and the TEAD-luciferase reporter activity (compound concentration: 10 uM) is inactive: 2.06.

As to `CNCCC(Oc1ccccc1OC)c1ccccc1` (centres undefined) [Nisoxetine HCl], the TEAD-luciferase reporter activity by setting is: (compound concentration: 200 nM) inactive: -1.03; (compound concentration: 10 uM) inactive: -0.45.

Turning to `CNCCC(Oc1ccccc1OC)c1ccccc1` (centres undefined) [Nisoxetine hydrochloride], the TEAD-luciferase reporter activity (compound concentration: 2 uM) was inactive: -1.34.

For the compound `CCN1CCN(C(=O)N[C@@H](C(=O)N[C@@H]2C(=O)N3C(C(=O)O)=C(CSc4nnnn4C)CS[C@H]23)c2ccc(O)cc2)C(=O)C1=O` [cefoperazone], the TEAD-luciferase reporter activity is, setting by setting: (compound concentration: 200 nM) inactive: -0.0777; (compound concentration: 2 uM) inactive: 0.921; (compound concentration: 10 uM) inactive: 2.53.

As for `CCCCCC/C=C/C=C\CCCCCCCC(=O)O` [(9Z,11E)-Octadecadienoic acid], the TEAD-luciferase reporter activity is inactive: -1.13 (compound concentration: 200 nM), inactive: -1.98 (compound concentration: 2 uM) and inactive: -0.602 (compound concentration: 10 uM).

In the case of `CC[C@H](c1ccc(O)cc1)[C@@H](CC)c1ccc(O)cc1`, the TEAD-luciferase reporter activity by setting is: (compound concentration: 200 nM) inactive: 0.508; (compound concentration: 2 uM) inactive: -2.97; (compound concentration: 10 uM) inactive: -0.177.

In the case of `COc1ccc(CC(=O)N2Cc3ccccc3CC23CCCN(C(=O)CN)C3)cc1` (centres undefined), the TEAD-luciferase reporter activity (compound concentration: 200 nM) is inactive: 0.58 and the TEAD-luciferase reporter activity (compound concentration: 10 uM) is active: 54.4.

On to `C#CCN/C(=N\C#N)NCCSCc1nc[nH]c1C`, for which the TEAD-luciferase reporter activity is, setting by setting: (compound concentration: 200 nM) inactive: -1.01; (compound concentration: 2 uM) inactive: 0.839; (compound concentration: 10 uM) inactive: 2.38.

With `C#CCN(c1nc(-c2cc(C)c(OC)cc2Cl)c(C)s1)[C@@H](CC1CC1)c1ccc(C)c(F)c1`, the TEAD-luciferase reporter activity (compound concentration: 200 nM) is inactive: 3.42, the TEAD-luciferase reporter activity (compound concentration: 2 uM) was inactive: -1.64 and the TEAD-luciferase reporter activity (compound concentration: 10 uM) is inactive: -0.0219.

`OC(CCCN1CCc2c(c3cc(F)ccc3n2-c2ccc(F)cc2)C1)c1ccc(F)cc1` (centres undefined): the TEAD-luciferase reporter activity was inactive: -1.1 (compound concentration: 200 nM), inactive: 0.727 (compound concentration: 2 uM) and inactive: -0.123 (compound concentration: 10 uM).

Consider `COc1ccc(CC(=O)NCc2ccccc2-c2ccccc2C(=O)NCCc2cccnc2)cc1`, for which the TEAD-luciferase reporter activity is, setting by setting: (compound concentration: 200 nM) inactive: -1.34; (compound concentration: 2 uM) inactive: -0.649; (compound concentration: 10 uM) inactive: 0.838.

On to `CCN(CC)CCOC(=O)C1(C2CCCCC2)CCCCC1` [Bentyl], for which the TEAD-luciferase reporter activity reads like this: (compound concentration: 200 nM) inactive: -1.95; (compound concentration: 10 uM) inactive: 2.54.

Turning to `CCN(CC)CCOC(=O)C1(C2CCCCC2)CCCCC1` [Dicycloverine hydochloride], the TEAD-luciferase reporter activity (compound concentration: 2 uM) is inactive: 0.187.

For `CC[C@@]1(O)C(=O)OCc2c1cc1n(c2=O)Cc2cc3c(CN(C)C)c(O)ccc3nc2-1` [Topotecan Hydrochloride], the TEAD-luciferase reporter activity (compound concentration: 200 nM) is inactive: 0.0713 and the TEAD-luciferase reporter activity (compound concentration: 10 uM) was inactive: -2.02.

On to `CC[C@@]1(O)C(=O)OCc2c1cc1n(c2=O)Cc2cc3c(CN(C)C)c(O)ccc3nc2-1` [topotecan TCS], for which the TEAD-luciferase reporter activity (compound concentration: 2 uM) is inactive: -1.81.

As for `CC(C)(C)/C=C/c1c(C#N)cc(O)c(O)c1C#N`, the TEAD-luciferase reporter activity runs as follows: (compound concentration: 200 nM) inactive: -1.11; (compound concentration: 2 uM) inactive: -1.02; (compound concentration: 10 uM) inactive: -2.3.

`CN(C)CCCOc1nn(Cc2ccccc2)c2ccccc12` [benzydamine flufenamate]: the TEAD-luciferase reporter activity was inactive: -0.32 (compound concentration: 200 nM), inactive: -0.382 (compound concentration: 2 uM) and inactive: -0.98 (compound concentration: 10 uM).

As for `O=C(NCc1cccnc1)c1cccn2ccnc12`, the TEAD-luciferase reporter activity runs as follows: (compound concentration: 200 nM) active: 5.38; (compound concentration: 10 uM) inactive: -0.0219.

In the case of `Cc1oc(-c2ccccc2)nc1CCOc1ccc(C[C@H](Nc2ccccc2C(=O)c2ccccc2)C(=O)O)cc1` [Farglitazar], the TEAD-luciferase reporter activity reads like this: (compound concentration: 200 nM) inactive: -0.163; (compound concentration: 2 uM) inactive: -0.326; (compound concentration: 10 uM) inactive: 0.317.

With `O=Cc1ccc(N2CCN(C(=O)N3CCCC3)CC2=O)cc1`, the TEAD-luciferase reporter activity is, setting by setting: (compound concentration: 200 nM) inactive: -0.121; (compound concentration: 10 uM) active: 5.65.

Consider `CC(=O)[C@H]1CC[C@H]2[C@@H]3C=CC4=CC(=O)CC[C@@]4(C)[C@@H]3CC[C@]12C` [dydrogesterone, Pantarhei], for which the TEAD-luciferase reporter activity (compound concentration: 200 nM) is inactive: 2.32 and the TEAD-luciferase reporter activity (compound concentration: 10 uM) is inactive: 0.734.

Regarding `CC(=O)[C@H]1CC[C@H]2[C@@H]3C=CC4=CC(=O)CC[C@@]4(C)[C@@H]3CC[C@]12C` [dydrogesterone], the TEAD-luciferase reporter activity (compound concentration: 2 uM) is inactive: 0.059.

Consider `COC(CN1CCN(CCC(O)c2ccccc2)CC1)c1ccccc1` (centres undefined), for which the TEAD-luciferase reporter activity (compound concentration: 200 nM) was inactive: 2.69, the TEAD-luciferase reporter activity (compound concentration: 2 uM) was inactive: -0.824 and the TEAD-luciferase reporter activity (compound concentration: 10 uM) is inactive: 1.38.
